Experimental data: PubChem BioAssay AID1259425 (University of Nebraska Medical Center, 2018)
Screen: 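Compare each knockdown with KSR1 silencing using changes in marker transcripts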 (primary screen). Cell system: HCT116 human colon cancer cells. Reagent: siRNA pool against human genes, 50 nM siRNA. Detection: 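mRNA of six signature genes measured together by branched-DNA assay after 50 nM siRNA pool, blank removed, divided by geometric mean of two housekeeping genes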. Scale: BNIP3L mRNA: higher = more BNIP3L transcript after knockdown; NDRG1 mRNA: higher = more NDRG1 transcript after knockdown; BNIP3 mRNA: higher = more BNIP3 transcript after knockdown; ALDOC mRNA: higher = more ALDOC transcript after knockdown; ACSL5 mRNA: higher = more ACSL5 transcript after knockdown.
The whole screen tested about 14,000 reagents; below is a part drawn at random. Not given: the time to read-out.

no.	Target gene	BNIP3L mRNA, set 1	NDRG1 mRNA, set 1	BNIP3 mRNA, set 1	ALDOC mRNA, set 1	ACSL5 mRNA, set 1
1	BBS4	0.0852	0.146	0.289	0.0312	0.173
2	HNMT	0.0739	0.0583	0.205	0.00839	0.0953
3	CACNB1	0.136	0.114	0.19	0.0192	0.113
4	SIDT2	0.173	0.176	0.399	0.0138	0.163
5	SERPINB3	0.102	0.29	0.338	0.0317	0.175
6	ZNF148	0.133	0.134	0.261	0.00402	0.0868
7	PAFAH2	0.0811	0.334	0.32	0.0322	0.125
8	YIPF3	0.08	0.174	0.362	0.0333	0.161
9	KPNA6	0.0406	0.0652	0.261	0.0221	0.0892
10	RHOB	0.0878	0.126	0.241	0.0166	0.0974
11	ERLIN1	0.165	0.116	0.275	0.033	0.166
12	FOXE3	0.197	0.0827	0.499	0.00916	0.0794
13	VBP1	0.116	0.16	0.29	0.0222	0.125
14	HK1	0.139	0.0937	0.329	0.00378	0.32
15	ECE1	0.0894	0.221	0.232	0.0232	0.164
16	SALL1	0.218	1.42	0.612	0.015	0.682
17	DEFA5	0.124	0.193	0.267	0.0239	0.231
18	IP6K1	0.162	0.0664	0.318	0.00608	0.254
19	SHOC2	0.0829	0.107	0.235	0.0154	0.0595
20	LIPT1	0.139	0.189	0.402	0.0173	0.218
21	PAPOLA	0.0782	0.186	0.207	0.0231	0.19
22	DOCK4	0.107	0.123	0.218	0.0353	0.0733
23	BTG4	0.203	0.424	0.349	0.0785	0.162
24	EBF1	0.126	0.135	0.313	0.0274	0.103
25	EIF2B2	0.0868	0.345	0.319	-0.0189	0.206
26	BCL2	0.187	0.094	0.344	0.0192	0.255
27	HLA-G	0.0861	0.15	0.311	0.00967	0.103
28	TM2D3	0.079	0.384	0.307	0.0316	0.169
29	ZNF503	0.176	0.287	0.284	0.0467	0.207

The list goes on; the last 6 above are carried over.
no.	Target gene	BNIP3L mRNA, set 1	NDRG1 mRNA, set 1	BNIP3 mRNA, set 1	ALDOC mRNA, set 1	ACSL5 mRNA, set 1
24	EBF1	0.126	0.135	0.313	0.0274	0.103
25	EIF2B2	0.0868	0.345	0.319	-0.0189	0.206
26	BCL2	0.187	0.094	0.344	0.0192	0.255
27	HLA-G	0.0861	0.15	0.311	0.00967	0.103
28	TM2D3	0.079	0.384	0.307	0.0316	0.169
29	ZNF503	0.176	0.287	0.284	0.0467	0.207
30	ZFP37	0.162	0.166	0.117	0.00325	0.176
31	PNN	0.0873	0.185	0.304	0.0274	0.0769
32	TMEM245	0.149	0.328	0.471	0.0464	0.225
33	CXCL12	0.0838	0.111	0.303	0.0483	0.23
34	SLC7A10	0.0862	0.131	0.243	0.0165	0.143
35	LIMS2	0.0408	0.148	0.351	0.0213	0.162
36	ASTN1	0.123	0.169	0.282	0.0366	0.11
37	PYGB	0.0903	0.523	0.239	0.0284	0.267
38	DUSP9	0.111	0.528	0.268	0.0128	0.335
39	MRPS6	0.272	0.45	0.3	0.0346	0.37
40	STARD3	0.0652	0.0826	0.243	0.0261	0.0925
41	ACRV1	0.106	0.976	0.379	0.0271	0.341
42	ACTL7B	0.0708	0.666	0.285	0.0203	0.379
43	CHST3	0.162	0.411	0.181	0.0138	0.18
44	TBC1D3F	0.311	0.126	0.324	0.0622	0.134
45	MPC2	0.0855	0.406	0.299	0.00889	0.228
46	NAA50	0.19	0.684	0.275	0.0552	0.299
47	MTHFR	0.121	0.239	0.325	0.0206	0.097
48	OR2T1	0.221	0.202	0.352	0.0388	0.268
49	PRAM1	0.182	0.328	0.281	0.0912	0.468
50	CHAF1B	0.21	0.677	0.353	0.0456	0.123
